Experimental data: the supplement of paper PMC12823440, “Inhibitors supercharge kinase turnover through native proteolytic circuits” (Nature, 2025)
Structures can show the parent of a compound that is named as a salt. The list shows a part of the results. Hit calls seldom repeat between salt and free forms of one compound.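 Kinases were expressed as nanoluciferase fusions in K562 cells and luminescence was read every 4 h between 2 and 18 h as percent of control, DMSO set to 100% and a positive control to 0%. A time point counts as decreased when the signal drops significantly (2 sigma). The hit call is the authors' own, does not follow from the count of time points alone, and its rule is not shown.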

The chains behind the UniProt entries cited, without tags or fusion partners. Where a name states a change or a piece, a line headed by the entry shows the natural chain unless it says otherwise.
UniProt P07948: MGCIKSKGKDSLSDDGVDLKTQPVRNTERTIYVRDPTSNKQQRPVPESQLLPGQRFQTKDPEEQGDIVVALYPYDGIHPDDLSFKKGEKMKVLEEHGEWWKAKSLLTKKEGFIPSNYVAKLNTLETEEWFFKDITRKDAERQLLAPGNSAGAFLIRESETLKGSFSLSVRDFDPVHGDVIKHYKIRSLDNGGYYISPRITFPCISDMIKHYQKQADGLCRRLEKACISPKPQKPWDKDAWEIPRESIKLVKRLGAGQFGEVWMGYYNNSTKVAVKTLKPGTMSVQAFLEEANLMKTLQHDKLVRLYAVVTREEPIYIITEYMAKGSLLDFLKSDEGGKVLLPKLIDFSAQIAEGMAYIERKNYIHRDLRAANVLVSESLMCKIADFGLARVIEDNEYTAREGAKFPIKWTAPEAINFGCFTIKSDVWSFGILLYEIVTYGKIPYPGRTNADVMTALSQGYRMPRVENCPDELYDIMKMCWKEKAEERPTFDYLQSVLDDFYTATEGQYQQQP

target: LYN (UniProt P07948); assay: number of time points (of 5) at which kinase-Nluc abundance scored as decreased, DMSO-normalised (count); higher = more persistent destabilization; conditions: K562; 2-18 h

SMILES | number of time points
Cc1cnc(Cl)nc1-c1ccc(N(Cc2ccc(CNC(=O)C(F)F)cc2)C(=O)c2ccc(O)cc2O)cc1 (10 µM) | 0
COc1cc2c(cc1OC)[C@@H]1C(=O)c3ccc4c(c3O[C@@H]1CO2)C=CC(C)(C)O4 [Deguelin] (10 µM) | 0
CC(C)(CCCCCC(O)CCCCCC(C)(C)C(=O)O)C(=O)O [Bempedoic acid] (10 µM) | 0
COc1cc2nnc(C(N)=O)c(Nc3ccc(C)cc3F)c2cc1N1CCN(CCO)CC1 (2.5 µM) | 0
O=C(Nc1ccc(Cl)cc1)C1CN(C(=O)c2cccc(-c3ccco3)c2)CC(F)(F)C1 (stereo not drawn) (2.5 µM) | 0
CC(=O)O[C@@H]1[C@@H](OC(C)=O)[C@@H](O)[C@H](Oc2c(-c3ccc(O)cc3)oc3cc(O)cc(O)c3c2=O)O[C@H]1C (10 µM) | 0
COc1cc2nc(-c3cc(F)ccc3O)nc(N[C@@H]3CNC[C@H]3C(C)(C)O)c2cc1OC (2.5 µM) | 0
C=CC(=O)Nc1cccc(Oc2nc(Nc3ccc(N4CCN(C)CC4)cc3OC)ncc2Cl)c1 (10 µM) | 0
C=CC(=O)Nc1cc(Nc2nccc(-c3cn(C)c4ccccc34)n2)c(OCC(F)(F)F)nc1N(C)CCNC [AST5902  (trimesylate)] (2.5 µM) | 0
O=C1C=CC2=C3c4cc(O)c(O)cc4CC3(O)COC2=C1O (stereo not drawn) [Hematein] (10 µM) | 0
CCC(F)(F)c1cc(N2CCC(S(C)(=O)=O)CC2)nc2sc(C(N)=O)c(N)c12 (10 µM) | 0
Cn1cc(C2=C(c3ccc(Cl)cc3Cl)C(=O)NC2=O)c2ccccc21 (10 µM) | 0
CCOC(=O)c1c(N2CCc3ccc(OC)cc3C2)oc(C=C2C=Nc3ncccc32)c1O (10 µM) | 0
O=C(COc1ccc(Cl)cc1)NC1CCC(NC(=O)COc2ccc(Cl)cc2)CC1 (stereo not drawn) [ISRIB (trans-isomer)] (10 µM) | 0
COc1ccc(CCNCc2ccc(OCc3ccc(Cl)nc3)c(OC)c2)cc1OC [SBE13 (Hydrochloride)] (10 µM) | 0
Cc1cccc(CC(=O)N2CCc3c2ccc(-c2cn(C)c4ncnc(N)c24)c3F)n1 (10 µM) | 0
COc1cc(N2CCC(N3CCN(C)CC3)CC2)ccc1Nc1ncnc(Nc2ccccc2S(=O)(=O)C(C)C)n1 (10 µM) | 0

SMILES | number of time points
CC(C)(Oc1ccc(Cl)cc1)C(=O)Nc1ccc(OCc2ccc(C#N)cc2)cc1 [AMPK activator 4] (10 µM) | 0
Cc1cc(N2CCOCC2)ccc1Nc1nc(NC2CCCCC2)c2[nH]cnc2n1 (10 µM) | 0
COC(=O)N1CCN(C2CCC(Nc3nc(Nc4cnn(C)c4)nc4ccc(CC#N)nc34)CC2)CC1 (stereo not drawn) (10 µM) | 0
CN(C)CCn1cc2cc(NC(=O)c3cccc(C(F)(F)F)n3)c(C(C)(C)O)cc2n1 (10 µM) | 0
CCOc1cc(N2CCC(O)CC2)ccc1Nc1ncc2c(n1)N(C1CCCC1)CCC(=O)N2C (2.5 µM) | 0
CCC[C@H](C)Oc1nc(N)c2[nH]c(=O)n(CCCCCN3CCCCC3)c2n1 (10 µM) | 0
Fc1ccc(-c2nc3n(c2-c2ccncc2)CCS3)cc1 (10 µM) | 0
CC(ONC(=O)c1cc(C(F)(F)F)cc(C(F)(F)F)c1)C(=O)Nc1ccc(Cl)cc1 (stereo not drawn) (2.5 µM) | 0
O=C(Nc1ccccc1C(=O)NC1CCCCNC1=O)c1cc2ccccc2s1 (stereo not drawn) (10 µM) | 0
N#CC(=C(/N)Sc1ccccc1N)/C(C#N)=C(\N)Sc1ccccc1N (10 µM) | 0
Nc1ccc(O)c(C(=O)O)c1 [5-Aminosalicylic Acid] (10 µM) | 0
CNCc1ccccc1Sc1cccc2ccccc12 [IFN alpha-IFNAR-IN-1 (hydrochloride)] (10 µM) | 1
CCCCNc1ncc2c(-c3ccc(F)cc3)nn(CC3CCC(N)CC3)c2n1 (stereo not drawn) (2.5 µM) | 0
Cc1ncsc1-c1ccc(CNC(=O)[C@@H]2C[C@@H](O)CN2C(=O)[C@@H](NC(=O)COCCOc2ccc(-c3cc(Nc4ccc(OC(F)(F)F)cc4)ncn3)cc2)C(C)(C)C)cc1 (2.5 µM) | 0
Cn1cnc2c(F)c(Nc3ccc(Br)cc3F)c(C(=O)NOCCO)cc21 [Binimetinib] (10 µM) | 0
O=C1NC(=O)C(Cc2c[nH]c3c(Cl)cccc23)N1 (stereo not drawn) [Necroptosis-IN-1] (10 µM) | 0
